Source: paper PMC5013874
No constants are given. Whether binding was seen depends on the method and setting. Binding seen in cells or lysates may run through a third protein.

Tests used:
GFP-Rab1 (human) = experiment: co-IP
GFP-Rab11 (human) = experiment: co-IP

B1: EspG:4xHA (protein, UniProt Q7DB50 1-381)
chain: MINGLNNDSASLVLDAAMKVNSGFKKSWDEMSCAEKLFKVLSFGLWNPTYSRSERQSFQELLTVLEPVYPLPNELGRVSARFSDGSSLRISVTNSELVEAEIRTANNEKITVLLESNEQNRLLQSLPIDRHMPYIQVHRALSEMDLTDTTSMRNLLGFTSKLSTTLIPHNAQTDPLSGPTPFSSIFMDTCRGLGNAKLSLNGVDIPANAQKLLRDALGLKDTHSSPTRNVIDHGISRHDAEQIARESSGSDKQKAEVVEFLCHPEAATAICSAFYQSFNVPALTLTHERISKASEYNAERSLDTPNACINISISQSSDGNIYVTSHTGVLIMAPEDRPNEMGMLTNRTSYEVPQGVKCIIDEMVSALQPRYAASETYLQNT
binding (GFP-Rab1 (human)): no binding | binding (GFP-Rab11 (human)): no binding
